Measured values published in paper PMC5083101.
These are yes or no findings as the source states them, for the method shown. In cells and extracts the contact can be indirect. Binding can be weak; no strength is given.

Biological target: T1, alpha-dystroglycan (rabbit skeletal muscle) (rabbit (endogenous in skeletal muscle)) (UniProt Q28685)
T1 sequence: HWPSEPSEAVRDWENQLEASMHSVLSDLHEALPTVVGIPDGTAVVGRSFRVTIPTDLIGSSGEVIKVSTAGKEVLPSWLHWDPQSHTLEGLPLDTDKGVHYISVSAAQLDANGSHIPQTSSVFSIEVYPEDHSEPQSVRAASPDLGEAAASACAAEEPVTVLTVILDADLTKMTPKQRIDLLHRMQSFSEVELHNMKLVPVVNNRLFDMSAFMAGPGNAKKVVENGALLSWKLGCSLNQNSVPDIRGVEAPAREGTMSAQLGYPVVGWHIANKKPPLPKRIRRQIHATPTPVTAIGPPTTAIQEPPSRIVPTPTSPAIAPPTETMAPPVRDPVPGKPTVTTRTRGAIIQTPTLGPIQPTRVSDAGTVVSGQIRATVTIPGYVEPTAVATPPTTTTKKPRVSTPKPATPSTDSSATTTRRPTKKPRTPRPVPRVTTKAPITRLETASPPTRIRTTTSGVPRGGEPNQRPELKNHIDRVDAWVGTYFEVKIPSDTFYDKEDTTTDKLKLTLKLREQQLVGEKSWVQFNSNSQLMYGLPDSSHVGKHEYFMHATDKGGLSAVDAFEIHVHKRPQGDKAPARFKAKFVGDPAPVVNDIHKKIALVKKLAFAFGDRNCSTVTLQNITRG
Experiment: co-IP; anti-α-DG antibody IIH6 coupled to CNBr-activated Sepharose; WGA-enriched, digitonin-solubilised rabbit skeletal muscle microsomes; 0.1% digitonin, 50 mM Tris-HCl pH 7.4, 150 mM NaCl; eluted in 0.1 M triethylamine pH 11.5; Western blot

In the case of “alpha-dystrobrevin (rabbit skeletal muscle)”, the binding was “binds”.

With “gamma-sarcoglycan (rabbit skeletal muscle)” the binding was “binds”.
